Data on 4 molecules can be found in paper PMC11616693.

Chains of the proteins cited; added tags and fusions are not shown. Lines headed by an entry give the natural chain unless they say otherwise; changes in a name come on top.
UniProt P06756: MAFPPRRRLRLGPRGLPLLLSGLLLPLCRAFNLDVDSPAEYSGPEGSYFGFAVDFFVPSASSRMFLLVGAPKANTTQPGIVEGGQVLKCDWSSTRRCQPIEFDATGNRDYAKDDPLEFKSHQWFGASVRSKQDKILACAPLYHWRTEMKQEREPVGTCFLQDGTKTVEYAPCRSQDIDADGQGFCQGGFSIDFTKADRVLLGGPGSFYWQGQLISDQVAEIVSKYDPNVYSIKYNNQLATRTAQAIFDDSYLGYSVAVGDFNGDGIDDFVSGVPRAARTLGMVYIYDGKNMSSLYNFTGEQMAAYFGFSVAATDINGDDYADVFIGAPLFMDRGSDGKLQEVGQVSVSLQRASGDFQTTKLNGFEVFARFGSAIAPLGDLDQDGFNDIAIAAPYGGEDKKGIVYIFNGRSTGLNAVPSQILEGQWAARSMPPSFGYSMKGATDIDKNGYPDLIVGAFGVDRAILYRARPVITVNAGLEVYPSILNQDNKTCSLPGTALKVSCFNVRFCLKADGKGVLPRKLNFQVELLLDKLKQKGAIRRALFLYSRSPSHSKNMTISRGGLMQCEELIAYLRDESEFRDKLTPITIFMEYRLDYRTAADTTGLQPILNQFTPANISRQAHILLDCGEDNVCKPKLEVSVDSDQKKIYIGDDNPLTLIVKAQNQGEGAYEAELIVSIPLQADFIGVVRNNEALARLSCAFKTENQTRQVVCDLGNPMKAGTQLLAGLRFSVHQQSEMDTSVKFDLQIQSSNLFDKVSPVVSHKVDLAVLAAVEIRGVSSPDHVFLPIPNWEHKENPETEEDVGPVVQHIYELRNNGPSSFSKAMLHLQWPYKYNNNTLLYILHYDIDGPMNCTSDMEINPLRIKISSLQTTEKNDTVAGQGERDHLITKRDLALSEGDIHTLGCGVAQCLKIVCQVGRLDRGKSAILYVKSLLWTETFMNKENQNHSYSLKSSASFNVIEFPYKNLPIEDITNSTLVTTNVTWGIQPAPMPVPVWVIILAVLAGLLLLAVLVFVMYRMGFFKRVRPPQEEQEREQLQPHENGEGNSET
UniProt P18564: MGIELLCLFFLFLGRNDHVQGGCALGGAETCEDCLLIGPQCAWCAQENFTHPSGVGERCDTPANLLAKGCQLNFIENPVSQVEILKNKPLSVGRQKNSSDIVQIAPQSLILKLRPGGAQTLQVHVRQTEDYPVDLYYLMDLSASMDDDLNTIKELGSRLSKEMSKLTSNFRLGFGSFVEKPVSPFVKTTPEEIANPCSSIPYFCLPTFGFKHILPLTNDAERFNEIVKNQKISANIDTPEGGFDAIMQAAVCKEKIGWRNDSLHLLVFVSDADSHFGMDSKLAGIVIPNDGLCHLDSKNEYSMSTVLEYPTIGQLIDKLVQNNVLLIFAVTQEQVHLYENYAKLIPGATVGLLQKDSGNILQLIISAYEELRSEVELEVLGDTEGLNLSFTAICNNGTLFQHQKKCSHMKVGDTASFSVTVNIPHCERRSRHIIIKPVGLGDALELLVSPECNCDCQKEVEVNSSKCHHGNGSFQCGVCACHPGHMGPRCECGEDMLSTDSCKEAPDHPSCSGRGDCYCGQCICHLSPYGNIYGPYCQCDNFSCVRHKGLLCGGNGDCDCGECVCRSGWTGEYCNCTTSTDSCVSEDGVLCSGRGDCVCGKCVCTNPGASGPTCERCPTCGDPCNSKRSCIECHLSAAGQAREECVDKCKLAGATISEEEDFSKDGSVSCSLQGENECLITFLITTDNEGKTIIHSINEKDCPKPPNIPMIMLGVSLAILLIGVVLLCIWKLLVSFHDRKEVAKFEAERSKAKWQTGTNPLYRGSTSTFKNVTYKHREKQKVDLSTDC
UniProt P04406: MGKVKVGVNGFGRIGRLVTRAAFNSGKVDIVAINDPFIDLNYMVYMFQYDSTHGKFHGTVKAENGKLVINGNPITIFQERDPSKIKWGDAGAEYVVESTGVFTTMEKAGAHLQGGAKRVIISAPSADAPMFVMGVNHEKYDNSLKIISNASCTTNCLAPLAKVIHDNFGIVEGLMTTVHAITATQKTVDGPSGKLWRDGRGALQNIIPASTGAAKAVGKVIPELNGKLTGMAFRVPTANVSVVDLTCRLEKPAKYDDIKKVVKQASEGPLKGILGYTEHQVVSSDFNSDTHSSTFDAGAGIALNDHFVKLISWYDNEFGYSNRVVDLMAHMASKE
UniProt P51149: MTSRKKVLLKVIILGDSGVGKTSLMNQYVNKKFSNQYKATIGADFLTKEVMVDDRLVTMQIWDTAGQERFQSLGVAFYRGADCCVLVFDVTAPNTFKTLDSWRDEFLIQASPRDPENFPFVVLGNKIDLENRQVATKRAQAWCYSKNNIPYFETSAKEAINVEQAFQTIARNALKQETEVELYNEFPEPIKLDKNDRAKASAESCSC
UniProt P49023: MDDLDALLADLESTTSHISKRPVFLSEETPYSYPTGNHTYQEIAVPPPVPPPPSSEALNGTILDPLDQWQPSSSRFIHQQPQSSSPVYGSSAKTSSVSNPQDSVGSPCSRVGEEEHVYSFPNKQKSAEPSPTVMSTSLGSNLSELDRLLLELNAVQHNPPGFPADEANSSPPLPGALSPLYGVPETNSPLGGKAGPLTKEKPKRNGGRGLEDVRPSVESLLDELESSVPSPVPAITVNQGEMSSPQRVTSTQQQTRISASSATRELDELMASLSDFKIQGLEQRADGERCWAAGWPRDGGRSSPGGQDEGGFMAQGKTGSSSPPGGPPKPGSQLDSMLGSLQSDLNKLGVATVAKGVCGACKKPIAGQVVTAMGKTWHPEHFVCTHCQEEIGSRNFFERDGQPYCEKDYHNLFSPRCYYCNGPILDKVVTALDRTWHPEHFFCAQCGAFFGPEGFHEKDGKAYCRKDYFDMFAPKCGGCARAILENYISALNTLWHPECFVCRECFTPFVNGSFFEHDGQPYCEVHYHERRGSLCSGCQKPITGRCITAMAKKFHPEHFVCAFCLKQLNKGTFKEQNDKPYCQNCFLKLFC

B1: guanine nucleotide dissociation inhibitor 2 (protein, UniProt P50395 1-445)
chain: MNEEYDVIVLGTGLTECILSGIMSVNGKKVLHMDRNPYYGGESASITPLEDLYKRFKIPGSPPESMGRGRDWNVDLIPKFLMANGQLVKMLLYTEVTRYLDFKVTEGSFVYKGGKIYKVPSTEAEALASSLMGLFEKRRFRKFLVYVANFDEKDPRTFEGIDPKKTTMRDVYKKFDLGQDVIDFTGHALALYRTDDYLDQPCYETINRIKLYSESLARYGKSPYLYPLYGLGELPQGFARLSAIYGGTYMLNKPIEEIIVQNGKVIGVKSEGEIARCKQLICDPSYVKDRVEKVGQVIRVICILSHPIKNTNDANSCQIIIPQNQVNRKSDIYVCMISFAHNVAAQGKYIAIVSTTVETKEPEKEIRPALELLEPIEQKFVSISDLLVPKDLGTESQIFISRTYDATTHFETTCDDIKNIYKRMTGSEFDFEEMKRKKNDIYGED

Results are given in words; binding and its absence hold for the method and conditions named. Some results given as binding are weak or reduced against the parent protein; the word gives no strength.

This test addresses αVβ6 integrin (human (endogenous in BT474 and HER2-18)) (UniProt P06756+P18564). Put plainly: isolation of integrin adhesion complexes (IACs) with immunoblotting; IACs isolated from BT474 cells on LAP, FN and Coll-I after DTBP cross-linking and removal of cell bodies; immunoblot. (In general: In western blotting, separated proteins are transferred to a membrane and probed.)
As to “glyceraldehyde-3-phosphate dehydrogenase (from UniProt P04406 1-335)”, the binding entry is on record as “no binding”. With RAB7A (from UniProt P51149 1-207), the binding result is “binds”. As for paxillin (from UniProt P49023 1-591), the entry is “binds”. On to B1, for which the binding entry is listed as “binds”.
